The text below walks through data of patent US20020132977A1.

Results are given in words; binding and its absence hold for the method and conditions named. Some entries that bind do so weakly or less than the wild type. Where a sequence is shown, tags or fusion partners need not be part of it.

One assay concerns the target T1, Flag-tagged p73β (UniProt O15350).
T1 sequence (looked up): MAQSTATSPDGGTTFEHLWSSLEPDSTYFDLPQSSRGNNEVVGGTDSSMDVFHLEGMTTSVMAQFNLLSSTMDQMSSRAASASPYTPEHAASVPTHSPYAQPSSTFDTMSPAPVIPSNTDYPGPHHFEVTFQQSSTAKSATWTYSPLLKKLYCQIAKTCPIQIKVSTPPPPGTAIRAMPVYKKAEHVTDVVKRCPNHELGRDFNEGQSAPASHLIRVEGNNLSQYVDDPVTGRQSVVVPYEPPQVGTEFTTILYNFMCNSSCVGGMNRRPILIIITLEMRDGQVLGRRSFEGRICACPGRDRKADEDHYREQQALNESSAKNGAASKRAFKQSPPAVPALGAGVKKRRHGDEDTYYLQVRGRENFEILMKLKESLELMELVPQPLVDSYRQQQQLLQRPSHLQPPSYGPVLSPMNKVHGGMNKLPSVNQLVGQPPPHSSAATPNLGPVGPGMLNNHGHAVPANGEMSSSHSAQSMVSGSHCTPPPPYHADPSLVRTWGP
Nature of the assay: anti-Flag IP, anti-GFP Western.

In assay [1] the target is p53 (p73βaa345-390) (human) (UniProt O15350). Nature of the assay: anti-Flag IP, anti-GFP Western.

B1: GFP-tagged p73 (protein, not shown: large carriers)
chain: MAQSTATSPDGGTTFEHLWSSLEPDSTYFDLPQSSRGNNEVVGGTDSSMDVFHLEGMTTSVMAQFNLLSSTMDQMSSRAASASPYTPEHAASVPTHSPYAQPSSTFDTMSPAPVIPSNTDYPGPHHFEVTFQQSSTAKSATWTYSPLLKKLYCQIAKTCPIQIKVSTPPPPGTAIRAMPVYKKAEHVTDVVKRCPNHELGRDFNEGQSAPASHLIRVEGNNLSQYVDDPVTGRQSVVVPYEPPQVGTEFTTILYNFMCNSSCVGGMNRRPILIIITLEMRDGQVLGRRSFEGRICACPGRDRKADEDHYREQQALNESSAKNGAASKRAFKQSPPAVPALGAGVKKRRHGDEDTYYLQVRGRENFEILMKLKESLELMELVPQPLVDSYRQQQQLLQRPSHLQPPSYGPVLSPMNKVHGGMNKLPSVNQLVGQPPPHSSAATPNLGPVGPGMLNNHGHAVPANGEMSSSHSAQSMVSGSHCTPPPPYHADPSLVSFLTGLGCPNCIEYFTSQGLQSIYHLQNLTIEDLGALKIPEQYRMTIWRGLQDLKQGHDYSTAQQLLRSSNAATISIGGSGELQRQRVMEAVHFRVRHTITIPNRGGPGGGPDEWADFGFDLPDCKARKQPIKEEFTEAEIH
As for B1, the binding result (with Flag-tagged p73β; in assay [1]) was “binds” each time.
